The source of these data is article PMC10477884.

Chains of the proteins cited; added tags and fusions are not shown.
UniProt P08670: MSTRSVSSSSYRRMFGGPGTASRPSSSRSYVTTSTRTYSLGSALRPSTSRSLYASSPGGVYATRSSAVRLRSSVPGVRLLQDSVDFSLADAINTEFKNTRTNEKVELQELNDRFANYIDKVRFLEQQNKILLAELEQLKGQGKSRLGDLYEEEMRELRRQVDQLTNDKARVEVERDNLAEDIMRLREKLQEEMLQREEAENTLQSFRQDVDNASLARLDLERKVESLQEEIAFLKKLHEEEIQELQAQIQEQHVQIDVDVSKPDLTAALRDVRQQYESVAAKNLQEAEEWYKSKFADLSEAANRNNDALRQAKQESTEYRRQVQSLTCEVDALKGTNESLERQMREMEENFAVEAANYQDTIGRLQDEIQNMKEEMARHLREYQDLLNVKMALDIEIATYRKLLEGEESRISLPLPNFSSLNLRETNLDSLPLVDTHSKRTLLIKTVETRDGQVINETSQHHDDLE
UniProt O95251: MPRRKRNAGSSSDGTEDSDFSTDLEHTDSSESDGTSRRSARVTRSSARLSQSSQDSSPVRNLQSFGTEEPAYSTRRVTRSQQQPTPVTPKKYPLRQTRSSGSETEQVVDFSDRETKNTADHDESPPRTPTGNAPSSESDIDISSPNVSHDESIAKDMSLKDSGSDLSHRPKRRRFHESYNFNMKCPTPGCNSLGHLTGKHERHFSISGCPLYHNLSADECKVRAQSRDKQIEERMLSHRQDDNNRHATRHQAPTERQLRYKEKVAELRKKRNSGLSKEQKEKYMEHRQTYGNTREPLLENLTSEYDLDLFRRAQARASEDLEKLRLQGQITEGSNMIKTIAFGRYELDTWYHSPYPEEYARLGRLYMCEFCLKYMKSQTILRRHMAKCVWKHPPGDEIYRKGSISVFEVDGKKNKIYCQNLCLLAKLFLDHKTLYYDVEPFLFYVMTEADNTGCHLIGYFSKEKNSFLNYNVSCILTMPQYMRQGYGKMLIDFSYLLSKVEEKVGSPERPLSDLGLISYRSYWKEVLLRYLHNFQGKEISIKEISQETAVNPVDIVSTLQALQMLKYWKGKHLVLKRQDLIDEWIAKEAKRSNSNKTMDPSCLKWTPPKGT

The target of test [1] is vimentin (co-IPs whose cells and constructs are not stated) (UniProt P08670). The test can be described thus: co-IP; vimentin and KAT7, with and without NLRP11; cells not given.
Test [2] addresses T1, NACHT, LRR, and PYD domain‐containing protein 11 (NLRP11) (human (endogenous in A549, H1299)) (UniProt P59045).
T1 sequence: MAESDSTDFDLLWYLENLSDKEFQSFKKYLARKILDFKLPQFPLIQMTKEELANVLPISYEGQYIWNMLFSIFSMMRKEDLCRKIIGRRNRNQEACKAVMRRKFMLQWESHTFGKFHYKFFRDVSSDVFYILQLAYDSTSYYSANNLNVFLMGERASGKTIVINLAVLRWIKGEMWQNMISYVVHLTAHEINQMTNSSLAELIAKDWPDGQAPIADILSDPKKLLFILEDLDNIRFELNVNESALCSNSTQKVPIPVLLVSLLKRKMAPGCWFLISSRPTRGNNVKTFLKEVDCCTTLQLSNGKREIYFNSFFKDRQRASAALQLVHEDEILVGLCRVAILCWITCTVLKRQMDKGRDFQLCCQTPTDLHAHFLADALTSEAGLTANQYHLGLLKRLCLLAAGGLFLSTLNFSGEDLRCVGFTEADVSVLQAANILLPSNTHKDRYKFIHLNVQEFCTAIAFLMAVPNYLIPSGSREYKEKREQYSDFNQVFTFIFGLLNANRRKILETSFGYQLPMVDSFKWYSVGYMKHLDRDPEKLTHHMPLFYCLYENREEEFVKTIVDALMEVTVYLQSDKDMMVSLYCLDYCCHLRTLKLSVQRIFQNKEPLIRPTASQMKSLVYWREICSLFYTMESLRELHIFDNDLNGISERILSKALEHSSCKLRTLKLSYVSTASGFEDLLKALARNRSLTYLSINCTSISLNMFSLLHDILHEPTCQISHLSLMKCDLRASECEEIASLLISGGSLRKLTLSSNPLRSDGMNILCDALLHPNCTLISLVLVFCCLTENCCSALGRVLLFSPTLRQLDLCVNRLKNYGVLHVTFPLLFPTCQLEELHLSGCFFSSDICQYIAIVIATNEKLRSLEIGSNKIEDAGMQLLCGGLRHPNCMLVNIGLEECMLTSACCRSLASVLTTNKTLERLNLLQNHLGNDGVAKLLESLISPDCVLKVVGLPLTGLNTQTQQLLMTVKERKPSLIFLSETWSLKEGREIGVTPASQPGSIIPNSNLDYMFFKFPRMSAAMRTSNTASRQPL
Briefly: co-IP; endogenous proteins in A549 and H1299 cells, western blot. A general note: A western blot detects proteins with antibodies after separation by electrophoresis.

Test [3] addresses T2, NLRP11, stably overexpressed in A549 cells (UniProt P59045).
T2 sequence: T1 sequence
The test can be described thus: co-IP; A549 cells overexpressing NLRP11, with or without MCC950.

Test [4] addresses vimentin (human (endogenous in A549, H1299)) (UniProt P08670). The test is described as above.

No constants are given. Whether binding was seen depends on the method and setting. Binding seen in cells or lysates may run through a third protein. Some results given as binding are weak or reduced against the parent protein; the word gives no strength.

Turning to “lysine acetyltransferase 7 (KAT7) (co-IP whose cells and constructs are not stated) (from UniProt O95251 1-611) (enzyme)”, in test [1], the binding result is given as “binds”.
In the case of vimentin (from UniProt P08670 1-466), the binding result in test [2] and in test [3] was “binds” throughout.
As for “lysine acetyltransferase 7 (KAT7) (from UniProt O95251 1-611) (enzyme)”, the binding entry in test [3] and in test [4] was “binds” throughout.
